# Laboratory results as given in PubChem BioAssay AID758 (NMMLSC, 2007).
# The whole screen tested about 190,000 compounds, of which about 110 (0.058%) were called active. This list was built around the results that the source calls inconclusive (neither active nor inactive); the mix of calls is not that of the screen.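 How the source made its calls: active means fluorescent GTP binding to Rab7 beads changed by at least 20 points from the 100% baseline, either direction, mostly lower; inconclusive means compound itself probably fluorescent, or too few beads counted; inactive means the rest.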
# Tested on: Rab7 GTPase wild type (dog), Bodipy-FL-GTP binding
# Test: modulators of GTP binding to Rab7, primary screen, biochemical, wildtype, multiplex bead flow cytometry (AID 758);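 further: median green fluorescence of bound Bodipy-FL-GTP per Rab7 bead population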
# Details: GST-Rab7 beads, fluorescent GTP binding, at 10 µM, actives lie on both sides, untreated = 100%, excess cold GTP = 0%
row,SMILES,GTP binding activity (percent of control)
1,Cc1ccnc(SCC(=O)n2c3c(c4ccccc42)CC(C)CC3)n1 (configuration not stated),inconclusive: 96%
2,OCCSc1nc(N2CCOCC2)nc(N2CCOCC2)n1,inactive: 95%
3,O=C(NCCN1CCN(c2cccc(Cl)c2)CC1)c1ccc(CSc2nc3ccncc3[nH]2)cc1,inactive: 96%
4,CCOC(=O)N1CCc2c(sc3c2c(=O)n(Cc2ccccc2)c(=O)n3Cc2cccc(C)c2)C1,inactive: 94%
5,Cc1cccc(NC(=O)CN2C(=O)N/C(=C/c3ccc(-c4cccc(C(=O)O)c4C)o3)C2=O)c1,inactive: 93%
6,C=CCN(C(=O)c1cccc(C(F)(F)F)c1)C1(C(=O)Nc2ccccc2)CCN(C(C)C)CC1,inconclusive: 96%
7,CC(C)n1c(O)c(N=NC(=O)c2ccccc2NS(=O)(=O)c2cccs2)c2ccccc21,inconclusive: 88%
8,O=C(COC(=O)c1cncc(Br)c1)NCc1ccco1,inconclusive: 98%
9,COCCNC(=O)C1CC(=O)N(c2ccc(OC)cc2)C1c1ccc(OC)cc1 (configuration not stated),inactive: 106%
10,CCCn1c(N)c(Sc2ccc([N+](=O)[O-])cc2)c(=O)n(CCC)c1=O,inconclusive: 95%
11,O=C(Oc1cccnc1)c1cc2ccccc2oc1=O,inconclusive: 91%
12,CC(=O)c1cn(CC(=O)Nc2cccc(C)c2C)c2ccccc12,inconclusive: 96%
13,CCOC(=O)C1CCN(C(=O)Cc2cccs2)CC1,inconclusive: 96%
14,Cc1ccc(-c2nnc(CCC(=O)NCC3C4CC5CC(C4)CC3C5)o2)s1 (configuration not stated),inactive: 102%
15,Nc1ccc2c(c1)Oc1ccccc1C=C2,inconclusive: 95%
16,C=CCNC(=O)c1ccccc1NC(=O)c1ccc(Cl)c(S(=O)(=O)Nc2ccccc2)c1,inactive: 96%
17,COc1ccc(Cl)cc1NC(=S)NCCN1CCOCC1,inconclusive: 98%
18,Cc1ccccc1NC(=O)C1CCCN(S(=O)(=O)c2cccc3cccnc23)C1 (configuration not stated),inactive: 101%
19,COc1ccc(/C=C2\SC(=S)NC2=O)cc1OS(=O)(=O)c1ccc(NC(C)=O)cc1,inactive: 118%
20,CC1CC(C)CN(C(=O)Cn2c(=O)n(CCCCC(=O)NCc3ccco3)c(=O)c3ccccc32)C1 (configuration not stated),inconclusive: 100%
21,CC(=O)c1c(C)[nH]c(C(=O)NCc2ccco2)c1C,inconclusive: 95%
22,C/C=C/C=N/NC(=O)CN(c1ccc(Br)cc1)S(=O)(=O)c1ccccc1,inactive: 103%
23,O=C(CSc1ncnc2c1oc1ccccc12)Nc1ccccc1F,inconclusive: 99%
24,O=C(NC1(C(F)(F)F)NC(=O)N(Cc2ccco2)C1=O)c1cccnc1 (configuration not stated),inconclusive: 98%

row,SMILES,GTP binding activity (percent of control)
1,Cc1cc(C(=O)NC(CC(C)C)C(=O)O)cc(C)c1[N+](=O)[O-] (configuration not stated),inactive: 100%
2,CCCn1nnc(NC(=O)/C=C/c2cc(Br)ccc2OC)n1,inconclusive: 95%
3,CC(C)CN(C)Cc1c(C(=O)N2CCc3ccccc3C2)nc2ccc(Cl)cn12,inactive: 93%
4,O=c1c(Cc2ccc(F)cc2)c(O)ccn1Cc1ccc(F)cc1,inconclusive: 97%
5,S=C(NCCCn1ccnc1)Nc1ccc(Cl)cc1Cl,inconclusive: 99%
6,CCCCN(CCCC)c1nc2ccccc2nc1C(C#N)C(=O)NCCCOC (configuration not stated),inconclusive: 115%
7,CC1=CCC(Cc2nc3ccccc3o2)C1(C)C (configuration not stated),inconclusive: 95%
8,CC(=O)c1cccc(NC(=S)NNC(=O)c2ccco2)c1,inconclusive: 91%
9,CCCn1c2c(c(O)c(C(=O)Nc3ccccc3)c1=O)CCCC2,inconclusive: 105%
10,COc1ccc(S(=O)(=O)N2CCC(C(=O)N3CCc4ccccc4C3)CC2)cc1,inconclusive: 100%
11,N=C1S/C(=C\c2ccco2)C(=O)N1c1ccc2c(c1)OCO2,inconclusive: 95%
12,COCC(C)N1CC(O)=C(c2nc(-c3ccc(Cl)cc3)cs2)C1=N (configuration not stated),inconclusive: 94%
13,Cc1ccc(C2=CSC3=NS(=O)(=O)CCN23)cc1,inconclusive: 93%
14,Cc1cccc(S(=O)(=O)c2c(N)n(/N=C/c3cccnc3)c3nc4ccccc4nc23)c1,inconclusive: 89%
15,Cc1occc1-c1nnc(SCC(=O)Nc2nc(-c3ccccc3)cs2)o1,inconclusive: 101%
16,CCOC(=O)c1c(C)[nH]c(C(=O)/C(C#N)=C/c2ccc(OC(F)F)c(OC)c2)c1C,inconclusive: 109%
17,CCCc1ccc(OCC(=O)NNC(=O)c2cccnc2)cc1,inactive: 97%
18,CCCN1CNC(=S)N(c2ccccc2C)C1,inactive: 107%
19,O=C(Cc1nc(=O)c2ccccc2s1)Nc1ccccc1,inconclusive: 92%
20,Cc1ccc(S(=O)(=O)Cn2nnnc2CN2CCN(Cc3ccc4c(c3)OCO4)CC2)cc1,inconclusive: 101%
21,CC(C)(C)C(C(=O)O)N1CCS(=O)(=O)CC1 (configuration not stated),inactive: 97%
22,CCc1cc2cc(OC)ccc2nc1SCC(=O)Nc1cc(OC)c(OC)cc1C(=O)O,inconclusive: 93%
23,CN(CC(=O)Nc1ccccc1C(F)(F)F)C(=O)CSc1nnnn1C,inactive: 105%

# Shown bar-delimited: part of the list above.
row | SMILES | GTP binding activity (percent of control)
11 | N=C1S/C(=C\c2ccco2)C(=O)N1c1ccc2c(c1)OCO2 | inconclusive: 95%
12 | COCC(C)N1CC(O)=C(c2nc(-c3ccc(Cl)cc3)cs2)C1=N (configuration not stated) | inconclusive: 94%
